Values joined by “and” are separate entries in the source; they are usually repeats but may differ in a detail not shown here. Equal entries are not always repeated. The list shows a part of the results. These are further read-outs of the screen, such as a control signal, another cell line or another target. No call is given for them. Compounds called inactive in the main read-out are mostly missing here. Potencies come from curve fits of mixed quality, noted in brackets.
Assay: qHTS Assay for Modulators of Lamin A Splicing
Details: HeLa LMNA splicing GFP/RFP minigene ratio, 48 h
Summary of the method: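 Read-out is the ratio of GFP to DsRed2 object intensity, acquired by 488 nm laser-scanning cytometry on HeLa lamin A-EGFP minigene reporter cells. Compound incubation 48 hrs at 37 °C in Opti-MEM with 2% FBS; DMSO 0.5% final.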

[1] = measured here: GFP splicing reporter channel
[2] = measured here: RFP viability control channel

SMILES	AC50 [1]	AC50 [2]
COc1cc(C=O)c(Br)cc1OCc1ccc(C)cc1	35.5 µM [falling, single point]	35.5 µM [falling, single point]
O=C(CSc1nc(=O)[nH]c2c1CCCC2)NCc1ccc(Cl)cc1	11.2 µM [rising, partial curve, poor fit]	
NC[C@H](O)c1ccc(O)c(O)c1		11.2 nM [falling, full curve, poor fit] and 5.62 µM [falling, single point]
Fc1ccc(-c2nnc(CN3CCC(c4nc5ccccc5s4)CC3)o2)cc1	17.8 µM [rising, partial curve, poor fit]	8.91 µM [rising, partial curve]
Cc1ccc(CSCC(=O)N/N=C/c2ccc(OCC(=O)Nc3ccc(C)cc3)cc2)cc1		35.5 µM [falling, single point]
OC[C@@H](O)[C@@H](O[C@H]1O[C@H](CO)[C@@H](O)[C@H](O)[C@H]1O)[C@H](O)[C@@H](O)CO	0.141 µM [rising, full curve, poor fit]	
CSc1nccc(N2CCN(c3ccc(F)cc3)CC2)n1	10 µM [rising, partial curve]	22.4 µM [rising, partial curve]
CC(NC(=O)CN1CCN(Cc2ccc(Cl)cc2)C1=O)c1ccc2c(c1)OCCO2 (stereo not given)		14.1 µM [rising, single point]
O=C(O)CCC(=O)OCC1CCCCC1		3.55 µM [falling, partial curve]
Cc1cc(C)c(NC(=O)c2oc3ccccc3c2COc2ccccc2)c(C)c1		15.8 µM [rising, partial curve]
O=C(NNS(=O)(=O)c1ccccc1F)c1sccc1-n1cccc1		3.98 µM [falling, partial curve, poor fit]
COC(=O)N/N=C/c1cc([N+](=O)[O-])cc(Br)c1O		14.1 µM [rising, single point]
Cc1ccc2cc(C(c3nnnn3C(C)(C)C)N3CCCCCC3)c(=O)[nH]c2c1 (stereo not given)	17.8 µM [rising, partial curve, poor fit]	
COc1ccccc1NC1=C(Cl)C(=O)N(C2CCCCC2)C1=O	35.5 µM [rising, single point]	35.5 µM [rising, single point]
O=C(COc1ccc(/C=N/NC(=O)CSCc2ccc([N+](=O)[O-])cc2)cc1)NCc1ccco1		20 µM [rising, single point]
CCSC1=NC2(CCN(C(=O)NC3CCCCC3)CC2)N=C1c1ccc(C)c(C)c1		35.5 µM [rising, single point]
CC(=O)Oc1ccc(C(=O)Nc2cccc(C(=O)c3cccc(NC(=O)c4ccc(OC(C)=O)cc4)c3)c2)cc1		10 µM [rising, partial curve, poor fit]
Cc1ccc(C(=O)CCC2CCCC2=O)cc1 (stereo not given)		3.16 µM [rising, full curve, poor fit]
COc1ccc(/C=C2\SC(=N)N(c3nccs3)C2=O)cc1OC		2.82 µM [rising, partial curve]

One compound at a time (already shown).
`Cc1ccc(CSCC(=O)N/N=C/c2ccc(OCC(=O)Nc3ccc(C)cc3)cc2)cc1` is listed with AC50 [2]: 35.5 µM [falling, single point]
`Cc1ccc2cc(C(c3nnnn3C(C)(C)C)N3CCCCCC3)c(=O)[nH]c2c1` (stereo not given) is listed with AC50 [1]: 17.8 µM [rising, partial curve, poor fit]
`O=C(NNS(=O)(=O)c1ccccc1F)c1sccc1-n1cccc1` is listed with AC50 [2]: 3.98 µM [falling, partial curve, poor fit]
`NC[C@H](O)c1ccc(O)c(O)c1` is listed with AC50 [2]: 11.2 nM [falling, full curve, poor fit] and 5.62 µM [falling, single point]

More structures follow.

SMILES	AC50 [1]	AC50 [2]
O=C(COC(=O)C1(c2ccc(F)cc2)CCCC1)N1CCc2ccccc21	14.1 µM [rising, single point]	25.1 µM [rising, single point]
CN(C)c1ncnc2ccc(-c3ccccc3C(F)(F)F)cc12	8.91 µM [falling, partial curve]	
COc1ccc(CNC(=O)CN2CCN(C(c3ccccc3)c3ccccc3)CC2)cc1	0.0631 µM [falling, full curve, poor fit]	
CCOc1ccc2c(c1)C(N(CCN1CCOCC1)C(=S)Nc1ccccc1OC)CC(C)(C)O2 (stereo not given)	0.708 µM [rising, partial curve]	
Cc1cccc2[nH]c(CN(C)Cc3nc(CC4CC4)no3)nc12		0.00447 µM [falling, full curve, poor fit]
COc1ccc(-c2nn(-c3ccccc3)cc2/C=C\C(=O)N2CCOCC2)cc1[N+](=O)[O-]		0.282 µM [falling, full curve, poor fit]
COc1cccc(Cn2c(=O)c(-c3cccs3)nc3cnc(OCc4ccccc4)nc32)c1		17.8 µM [falling, partial curve]
Cc1ccc(Nc2cc(-c3ccccc3)nc(C)n2)cc1	0.562 µM [falling, full curve]	0.316 µM [falling, full curve, poor fit]
Cc1[nH][nH]c(=O)c1C(c1c(C)[nH][nH]c1=O)c1cn(Cc2ccccc2Cl)c2ccccc12	7.08 µM [rising, partial curve]	31.6 µM [rising, single point]
O=C(CCCN1C(=O)/C(=C\c2cccc(Br)c2)SC1=S)Nc1cccnc1	4.47 µM [falling, full curve]	7.94 µM [falling, partial curve]
NC(N)=N/N=C/c1ccc(OCc2ccccc2Cl)cc1	28.2 µM [falling, single point]	
CC(C)c1nn2c(=O)cc(COC(=O)c3ccc(NC(=O)c4ccccc4Cl)cc3)nc2s1		3.16 µM [rising, partial curve, poor fit]
S=C(Nc1ccc(Br)cc1)NC1CCCC1	2 µM [rising, single point]	
CCOC(=O)N1CCC(N(CCOC)C(=O)Nc2ccc(Cl)c(Cl)c2)CC1		12.6 µM [rising, partial curve]
CCOC(=O)C1=C(C)NC(=S)NC1C (stereo not given)	0.316 µM [falling, full curve, poor fit]	0.501 µM [falling, partial curve, poor fit]
Cn1c(C(=O)OC(C(=O)NC(C)(C)C)c2cccnc2)cc2sccc21 (stereo not given)	0.501 µM [falling, full curve]	
c1ccc2c(-c3c[nH]c4ccccc34)c3ccccc3nc2c1	35.5 µM [falling, single point]	35.5 µM [falling, single point]
O=C(NC(=S)Nc1ccc(F)c([N+](=O)[O-])c1)c1ccccc1F		0.708 µM [rising, partial curve]
C/C(CCN1CCCCc2nc(C)c(C)cc21)=N\O[C@@H](C)c1cn([C@H](CO)Cc2ccccc2)nn1		5.01 µM [rising, full curve, poor fit]

SMILES	AC50 [1]	AC50 [2]
COc1ccccc1CNc1nc(-c2ccco2)nn1S(=O)(=O)c1ccc(C)cc1	6.31 µM [rising, single point]	
CCOC(=O)Cc1cnc(NC(=O)Cn2nnc(-c3ccc(OCC)cc3)n2)s1	7.08 µM [rising, partial curve, poor fit]	7.94 µM [rising, partial curve, poor fit]
Cc1ccc(C(=O)c2ccccc2C(=O)OCC(=O)Nc2cccc([N+](=O)[O-])c2)cc1		22.4 µM [rising, partial curve, poor fit]
CC1CCc2cccc3c2N1c1cc(C#N)c(C#N)cc1O3 (stereo not given)		5.62 µM [falling, partial curve]
CCCCCCOc1ccccc1C(N)=O		0.00251 µM [falling, full curve, poor fit]
O=C(N/N=C/c1cccs1)c1cc(-c2cccc3ccccc23)n[nH]1		12.6 µM [rising, partial curve]
CC1=NN(c2ccccc2)C(=O)/C1=C/C=C/c1ccc(N(C)C)cc1		12.6 µM [rising, partial curve, poor fit]
O=C(N/C(=C\c1ccc([N+](=O)[O-])cc1)C(=O)N1CCCCC1)c1ccccc1Br	35.5 µM [rising, single point]	25.1 µM [rising, single point]
CCn1cc(C2C(C(=O)Nc3ccc(Br)cn3)=C(C)NC3=C2C(=O)CCC3)c(C)n1 (stereo not given)		10 µM [rising, single point]
O=C(c1ccc(F)cc1)N1c2ncnn2C2(CCCCC2)[C@@H]2CCCC[C@@H]21	2.51 µM [falling, single point]	
Cc1cc(NC(=O)c2ccc(Br)c(S(=O)(=O)N3CCCC3)c2)no1		25.1 µM [rising, partial curve]
CC(=O)Nc1ccc(S(=O)(=O)n2nc(-c3ccc(C)cc3)nc2N)cc1		12.6 µM [rising, single point]
COC(=O)c1ccc(NC(=S)N2CCN(C)CC2)cc1		0.158 µM [falling, full curve, poor fit]
COc1ccc(CN(C)C(=S)Nc2ccc(Cl)cc2Cl)cc1	0.00447 µM [falling, full curve, poor fit]	
COC(=O)Cc1c(OC)ccn(CCc2c[nH]c3ccccc23)c1=O	2 µM [rising, partial curve, poor fit]	
CCN(CC(=O)Nc1ccc(N2CCOCC2)cc1)C(=O)c1ccc(C(F)(F)F)cc1	0.562 µM [falling, full curve, poor fit]	
COC(=O)c1cc(=O)n(CCc2ccc(OC)c(OC)c2)c(=Nc2ccc(F)c(Cl)c2)s1	35.5 µM [falling, single point]	35.5 µM [falling, single point]
CCc1ccc(Sc2cc(C(=O)NCCCN3CCCC(C)C3)c3ccccc3n2)cc1 (stereo not given)	3.16 µM [falling, full curve, poor fit]	
CCOC(=O)c1[nH]c(C)c(C(=O)Nc2cc(OC)ccc2OC)c1C		1.26 µM [rising, full curve, poor fit]

From PubChem BioAssay AID1487 (National Center for Advancing Translational Sciences (NCATS), 2009)
